The exact form of at least one protein or probe is not confirmed. For some of these results: A weaker result is weaker than the reference pair of the same experiment. At least one verdict rests on a figure or table, not on a statement of the authors. For some of these results: Protein sequences can lack the tags named with them.
How the values were obtained:
[1] = target: T1, SmTRβ (Schistosoma mansoni) (UniProt Q2TUU6); assay: EMSA; conditions: EMSA on ice 40 min, 15 µl with 3 µl 5x buffer (5x: 20% glycerol, 5 mM MgCl2, 2.5 mM EDTA, 2.5 mM DTT, 250 mM NaCl, 50 mM Tris-HCl pH 7.5, 0.25 mg/ml poly(dI-dC)); protein translated in vitro; residues 1-847; label: 32P
T1 sequence (looked up): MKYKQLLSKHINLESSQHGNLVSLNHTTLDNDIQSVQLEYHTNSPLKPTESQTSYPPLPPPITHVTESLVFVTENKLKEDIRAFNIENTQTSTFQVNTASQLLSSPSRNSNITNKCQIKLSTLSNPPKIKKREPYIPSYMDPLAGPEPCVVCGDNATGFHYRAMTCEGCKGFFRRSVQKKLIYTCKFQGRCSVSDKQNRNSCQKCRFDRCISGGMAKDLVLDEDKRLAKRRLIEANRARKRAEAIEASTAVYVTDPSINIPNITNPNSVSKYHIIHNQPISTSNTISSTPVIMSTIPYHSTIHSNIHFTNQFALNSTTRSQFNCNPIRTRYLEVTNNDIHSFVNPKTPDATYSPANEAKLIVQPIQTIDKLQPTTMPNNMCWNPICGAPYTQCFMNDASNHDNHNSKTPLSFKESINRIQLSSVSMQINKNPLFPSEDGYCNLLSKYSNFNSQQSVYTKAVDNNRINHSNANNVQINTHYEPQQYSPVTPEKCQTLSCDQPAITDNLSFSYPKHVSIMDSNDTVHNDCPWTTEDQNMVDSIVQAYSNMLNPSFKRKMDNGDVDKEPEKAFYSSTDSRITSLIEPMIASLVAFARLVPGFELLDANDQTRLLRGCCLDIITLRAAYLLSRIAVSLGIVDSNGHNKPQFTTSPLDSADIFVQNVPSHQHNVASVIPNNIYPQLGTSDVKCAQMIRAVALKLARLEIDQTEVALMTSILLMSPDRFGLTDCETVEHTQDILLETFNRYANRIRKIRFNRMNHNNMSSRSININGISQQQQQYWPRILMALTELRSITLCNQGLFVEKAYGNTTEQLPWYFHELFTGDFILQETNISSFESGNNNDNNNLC

[2] = system: SmRXR1 (Schistosoma mansoni); assay: EMSA; conditions: EMSA on ice 40 min, 15 µl with 3 µl 5x buffer (5x: 20% glycerol, 5 mM MgCl2, 2.5 mM EDTA, 2.5 mM DTT, 250 mM NaCl, 50 mM Tris-HCl pH 7.5, 0.25 mg/ml poly(dI-dC)); protein translated in vitro; label: 32P

“CCGTAAGGTCAAGGTCACTCG (double strand) [DR0]”: binds more weakly [1]; binds [2].

“CCGTAAGGTCACAAGGTCACTCG (double strand) [DR2]”: binds more weakly [1]; binds [2].

“CCGTAAGGTCACAGAGGTCACTCG (double strand) [DR3]”: binds more weakly [1]; binds [2].

“CCGTAAGGTCACAGGAGGTCACTCG (double strand) [DR4]”: binds more weakly [1]; binds [2].

“CCGTAAGGTCACAGGTCACTCG (double strand) [DR1]”: binds more weakly [1]; binds [2].

“CCGTAAGGTCACCAGGAGGTCACTCG (double strand) [DR5]”: binds more weakly [1]; binds [2].

“CGCAAGGTCATGACCTCG (double strand) [Pal0]”: binds more weakly [1]; binds [2].

“GTACCGTAAGGTCACTCGCGT (double strand) [half-site]”: binds more weakly [1]; binds [2].

Reference: article PMC2045677, “Thyroid hormone receptor orthologues from invertebrate species with emphasis on Schistosoma mansoni”
